Results published in US11591288B2, “Compositions and methods for treating atherosclerotic cardiovascular disease” (GAVISH-GALILEE BIO APPLICATIONS LTD., priority 2017, dated 2023).

Assays:
HDL = assay: HDL-lyso-DGTS interaction, Trp fluorescence quenching; format: binding, human
Experimental: FIGS. 10A-10B show tryptophan fluorescence spectra of HDL (0.03 mg/ml) incubated with/without lyso-DGTS at various concentrations (1, 5, 10, 25, 50, 75, and 100 μg/ml) in black 96-well plates for 4 h at 37° C. (10A) or 25° C. (10B). The fluorescence was measured at excitation/emission 290/320-340 nm. The ability of lyso-DGTS to elevate HDL activity correlates with its binding affinity to HDL. Each experiment repeated separately at least three times.
HDL and LDL were isolated from human plasma samples by discontinuous density gradient ultracentrifugation and dialyzed against saline containing sodium ethylenediaminetetraacetic acid (EDTA; 1 mmol/L) to protect the lipoproteins against oxidation. Before generating the experiments, LDL and HDL were dialyzed twice, for 1 h each time, and once more overnight against PBS at 4° C. to remove EDTA.
In order to test whether the protective effect of lyso-DGTS on HDL occurs via specific interaction between lyso-DGTS and the lipoprotein, the HDL-lyso-DGTS interaction was investigated by the Trp-fluorescence-quenching method. […] (FIG. 10A) and 25° C. (FIG. 10B) in the 300-450 nm range with an excitation wavelength of 290 nm. Lyso-DGTS quenched HDL fluorescence in a dose-dependent manner at both temperatures.
Quenching pathways can be described by the Stem-Volmer equation (eq. 1 above). The Stern-Volmer curve was linear at the tested concentration of lyso-DGTS at both temperatures (with R>0.99 and p<0.0001). The Ksv values were (5.59±0.42)×10^3 M^−1 at 37° C. (FIG. 11A) and (4.83±0.59)×10^3 M^−1 at 25° C.
The binding constant and binding sites were calculated as shown for rePON1, using eq. 2 above. […] (FIG. 11D). The values obtained for n were not affected by temperature and were equal to 1 (Table 5). The thermodynamic parameters: enthalpy (ΔH), entropy (ΔS), and free energy (ΔG) were calculated to characterize the HDL-lyso-DGTS interaction type.

rePON1 = assay: rePON1-lyso-DGTS interaction, Trp fluorescence quenching; format: binding
Experimental: To 200 μl rePON1 (50 μg/ml=1.16 μM) solution in black 96-well plate wells was added lyso-DGTS at various concentration (0, 1, 5, 10, 25, 50, 75, and 100 μg/ml). The solutions were incubated for 2 h at 25° C. or 37° C. Fluorescence measurements were performed with an Infinite M200 PRO fluorescence spectrophotometer (Tecan) with emission spectra recorded from 320 to 450 nm at an excitation wavelength of 290 nm.
The effect of lyso-DGTS on rePON1 can result from a specific interaction between the lipid and the enzyme which was studied using Trp fluorescence quenching method. […] (FIG. 3A) and 37° C. (FIG. 3B) in the 300-450 nm range with an excitation wavelength of 290 nm. Lyso-DGTS quenched the fluorescence of rePON1 in a dose dependent manner at both temperatures.
Quenching pathways can be described by the Stern-Volmer equation (eq. 1):
[formula] where F0 and F are the fluorescence intensities in the absence and presence of quencher (lyso-DGTS), respectively, Ksv is the Stern-Volmer quenching constant, and [Q] is the quencher concentration (M).
The binding constant and binding sites were calculated using (eq. 2):
[formula] where Ka is the binding constant, reflecting the degree of interaction between rePON1 and lyso-DGTS, and n is the number of binding sites specifying the number of lyso-DGTS molecules bound to a rePON1. […] (2.377×10^3 M^−1; FIG. 4C). The values obtained for n were not affected by the temperature and were equal to ˜1 (Table 4). The thermodynamic parameters: enthalpy (ΔH), entropy (ΔS), and free energy (ΔG) were calculated to characterize the type of rePON1-lyso-DGTS interaction.

CC/C=C\C/C=C\C/C=C\C/C=C\C/C=C\CCCC(=O)OCC(O)COCCC(C(=O)[O-])[N+](C)(C)C (stereo not drawn) [lyso-DGTS, lyso-diacylglyceryltrimethylhornmoserine]
number of binding sites (n), lyso-DGTS-HDL (HDL; 298 K): 0.96 ± 0.05 | ΔG, lyso-DGTS-HDL interaction (HDL; 298 K): -4.86 kJ/mol | number of binding sites (n), lyso-DGTS-HDL (HDL; 310 K): 1.19 ± 0.05 | ΔG, lyso-DGTS-HDL interaction (HDL; 310 K): -6.127 kJ/mol | ΔH, lyso-DGTS-HDL interaction (HDL; from 298 and 310 K): 26.6 kJ/mol | ΔS, lyso-DGTS-HDL interaction (HDL; from 298 and 310 K): 105.59 J/mol K | number of binding sites (n), lyso-DGTS-rePON1 (rePON1; 298 K): 0.98 ± 0.05 | ΔG, lyso-DGTS-rePON1 interaction (rePON1; 298 K): -22.876 kJ/mol | number of binding sites (n), lyso-DGTS-rePON1 (rePON1; 310 K): 0.84 ± 0.05 | ΔG, lyso-DGTS-rePON1 interaction (rePON1; 310 K): -19.97 kJ/mol | ΔH, lyso-DGTS-rePON1 interaction (rePON1; from 298 and 310 K): -94.992 kJ/mol | ΔS, lyso-DGTS-rePON1 interaction (rePON1; from 298 and 310 K): −242.16 J/mol K
